Data reported in PubChem BioAssay AID504834 (National Center for Advancing Translational Sciences (NCATS), 2011).
Out of some 320,000 compounds screened, about 22,000 (6.9%) were called active. Inconclusive results, whose numbers are uncertain, are shown with a selection of clear calls. The call rests on the fitted dose curve; in most records, active means well fitted inhibition curve with a large enough effect; inconclusive means small, poorly fitted or top-dose-only effect, or another doubt; inactive means no such curve, though single readings can be large or run the other way. Potencies beside an inconclusive call are fits to weak or partial responses and may not hold up.

Test: Primary qHTS for delayed death inhibitors of the malarial parasite plastid, 96 hour incubation
Conditions: P. falciparum luciferase reporter growth; series mostly up to 28.7 µM
In short: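 Compounds incubated with erythrocytes infected by luciferase-expressing P. falciparum (2% hematocrit, 0.05% parasitemia final) for 96 hours, 37 C in 5% CO2. Growth inhibition scored as decreased luciferase luminescence.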
Potency means the concentration at half of the fitted maximal effect.

Row | Structure (SMILES) | Potency
1 | NC(=O)CC(NC(=O)Cc1cccc2ccccc12)c1ccc(NCCc2ccccc2F)c([N+](=O)[O-])c1 (stereo not given) | inconclusive: 11.7 µM [inhibitor, single point]
2 | Cc1cccc(NCCC(=O)c2ccc([N+](=O)[O-])cc2)c1C | inactive
3 | COc1ccc(NC(C)=O)cc1NC(C)C(=O)Nc1ccc(S(=O)(=O)N2CCCCC2)cc1 (stereo not given) | inconclusive: 9.28 µM [inhibitor, single point]
4 | COc1ccc(-n2c(C)cc(C(=O)COC(=O)c3ccc(O)cc3O)c2C)cc1 | active: 11.7 µM
5 | Cc1cccc(NS(=O)(=O)c2ccc(C)c(C(=O)OCC(=O)Nc3cc(C)on3)c2)c1 | inconclusive: 8.28 µM [inhibitor, partial curve, poor fit]
6 | CCOC(=O)C(=O)NNc1ccccc1C | inconclusive: 13.1 µM [inhibitor, single point]
7 | CCCCCNC(=O)c1ccc(NS(=O)(=O)c2ccc3[nH]c(=O)[nH]c3c2)cc1 | inconclusive: 14.7 µM [inhibitor, single point]
8 | CCOC(=O)c1ccc(NC(=O)CSc2nc(NC(=O)c3ccccc3)c3c(C)c(C)oc3n2)cc1 | inconclusive: 10.4 µM [inhibitor, partial curve]
9 | Cc1ccc(S(=O)(=O)N(C)CCCC(=O)N2CCCCC2)cc1 | inactive
10 | CC(C(=O)Nc1cccc(Br)c1)c1ccc([N+](=O)[O-])cc1 (stereo not given) | inconclusive: 4.15 µM [inhibitor, single point]
11 | C=C1CCC[C@]2(C)C[C@H]3OC(=O)C(CNC(CC)CO)[C@H]3CC12 (stereo not given in full) | inconclusive: 10.4 µM [inhibitor, single point]
12 | Cc1cccc(-n2ncc3c2CCCC3NC(=O)CC(F)(F)F)c1C (stereo not given) | inactive
13 | COc1ccc(-c2nn(C)c(=O)c3ccccc23)cc1CNC(=O)C1CCCCC1 | inconclusive: 20.8 µM [inhibitor, partial curve, poor fit]
14 | COc1ccc(N2CCN(C(=O)c3cn(C)c4ccc(S(=O)(=O)N5CCOCC5)cc4c3=O)CC2)cc1 | inconclusive: 13.1 µM [inhibitor, single point]
15 | O=C(c1cccc(N2C(=O)C3CC=CCC3C2=O)c1)N1CCN(c2ccccc2)CC1 (stereo not given) | inconclusive: 11.7 µM [inhibitor, partial curve, poor fit]
16 | O=C1C2C3CCCC3=C3CCCC3C2C(=O)N1c1cccc(Cl)c1 (stereo not given) | inactive
17 | Cc1ccc(C(=O)NCC(=O)OCc2nnc(-c3ccc([N+](=O)[O-])cc3)o2)s1 | inconclusive: 18.5 µM [inhibitor, single point]
18 | CCOc1ccc2nc(SCC(=O)NCc3ccccc3OC)[nH]c2c1 | inconclusive: 20.8 µM [inhibitor, partial curve, poor fit]
19 | Cn1c(O)c(C(=NCCc2c[nH]c3ccccc23)c2ccccc2)c(=O)n(C)c1=O | inconclusive: 18.5 µM [inhibitor, single point]
20 | CCOC(=O)c1ccc(NC(=O)N2CCN(C(=O)C3CCCO3)CC2)cc1 (stereo not given) | inconclusive: 14.7 µM [inhibitor, single point]
21 | Cc1ccc(-c2nnc(Oc3ccc(NC(=O)c4ccccc4)cc3)c3ccccc23)cc1 | inconclusive: 11.7 µM [inhibitor, single point]
22 | Cc1cc(C)n(CCCN2C(=O)c3cccc4cccc(c34)C2=O)n1 | inconclusive: 0.329 µM [inhibitor, partial curve, poor fit]

Row | Structure (SMILES) | Potency
23 | Cc1oc2c(cc(NS(=O)(=O)c3cccs3)c3ccccc32)c1C(=O)OC(C)C | active: 9.28 µM
24 | CC(=O)N1CCN(c2ccc(NC(=O)c3cccc(C)c3)cc2)CC1 | inconclusive: 11.7 µM [inhibitor, single point]
25 | Cc1ccc(OCC(=O)Nc2ccccc2Sc2ccc(Cl)cc2)c([N+](=O)[O-])n1 | inconclusive: 16.5 µM [inhibitor, single point]
26 | CCOC(=O)C(=Cc1ccc(Br)cc1)C(=O)OCC | inconclusive: 5.22 µM [inhibitor, partial curve, poor fit]
27 | CN1C(=O)C(C)(C)c2cc(S(=O)(=O)N3CCN(c4ccc(F)cc4)CC3)ccc21 | inconclusive: 16.5 µM [inhibitor, single point]
28 | CCOC(=O)C1CCN(CC(=O)c2c(C)n(C)c3ccc(OC)cc23)CC1 | inactive
29 | O=C(C1=C[C@@H](c2ccccc2)C[C@@H](OCc2ccc(CO)cc2)O1)N1CCOCC1 | inactive
30 | CCOc1ccc(N(CC(=O)N/N=C/c2ccccn2)S(=O)(=O)c2ccc(Cl)cc2)cc1 | inconclusive: 18.5 µM [inhibitor, single point]
31 | COc1cc(/C=N\n2cnnc2)ccc1OCC(=O)Nc1ccc(C)cc1 | inactive
32 | CCOCc1nnc(NC(=O)CCS(=O)(=O)Cc2ccccc2)s1 | inactive
33 | COc1ccc(N=C2SC(CC(=O)Nc3ccccc3)C(=O)N2CC2CCCO2)cc1 (stereo not given) | inconclusive: 16.5 µM [inhibitor, single point]
34 | Cc1ccccc1NP(=O)(Oc1ccccc1F)Oc1ccccc1F | inconclusive: 18.5 µM [inhibitor, single point]
35 | Nc1nc(Nc2ccc(Cl)cc2Cl)nc(C(F)(F)F)n1 | inactive
36 | CC1CCCC(C)N1S(=O)(=O)c1ccc(NC(=O)c2ccccc2C(=O)N2CCOCC2)cc1 (stereo not given) | inconclusive: 10.4 µM [inhibitor, partial curve, poor fit]
37 | CCn1c(Cn2nnc(-c3ccccc3)n2)nnc1SCC(=O)Nc1ccc(C(C)=O)cc1 | inconclusive: 8.28 µM [inhibitor, single point]
38 | COc1ccc(C)cc1S(=O)(=O)N(CC(=O)Nc1cccc([N+](=O)[O-])c1)c1ccccc1 | active: 11.7 µM
39 | COc1ccccc1OCC(=O)Nc1cc(Cl)ccc1N1CCCCC1 | inconclusive: 13.1 µM [inhibitor, single point]
40 | Cc1ccc(NC(=O)C(c2ccccc2)N2CCN(CC(=O)NC3CC3)CC2)cc1Cl (stereo not given) | inconclusive: 1.47 µM [inhibitor, full curve, poor fit]
41 | COc1ccccc1/C=N/Nc1nncc2ccccc12 | inactive
42 | O=C(OCCOCCN=C1NS(=O)(=O)c2ccccc21)c1ccccc1Br | inconclusive: 13.1 µM [inhibitor, single point]
43 | Cc1ccc(S(=O)(=O)N2CCN(C(=O)Cc3c(F)cccc3Cl)CC2)cc1 | inactive
44 | COc1cc(/C=C/C(=O)O)cc(S(=O)(=O)NC2CC2)c1OC | inactive

Some of the entries so far, with tabs.
Row	Structure (SMILES)	Potency
25	Cc1ccc(OCC(=O)Nc2ccccc2Sc2ccc(Cl)cc2)c([N+](=O)[O-])n1	inconclusive: 16.5 µM [inhibitor, single point]
26	CCOC(=O)C(=Cc1ccc(Br)cc1)C(=O)OCC	inconclusive: 5.22 µM [inhibitor, partial curve, poor fit]

Further entries follow.

Row | Structure (SMILES) | Potency
45 | O=C(c1ccc(N2CCCCC2)c([N+](=O)[O-])c1)N1CCN(c2ccccn2)CC1 | inconclusive: 10.4 µM [inhibitor, partial curve, poor fit]
46 | CC(=O)n1nc(-c2ccccc2)nc1NCc1ccc(N(C)C)cc1 | inconclusive: 0.0657 µM [inhibitor, full curve, poor fit]
47 | CCC1CCCCN1S(=O)(=O)c1ccc(C(=O)Nc2nnc(-c3ccccc3Cl)o2)cc1 (stereo not given) | inconclusive: 2.62 µM [inhibitor, single point]
48 | Cc1cc2ncc(Cl)nc2cc1C | inactive
49 | O=C(Cn1ncc(Cl)c(Cl)c1=O)N1CCN(Cc2ccccc2)CC1 | inconclusive: 9.28 µM [inhibitor, single point]
50 | O=C1CSC(c2cn(-c3ccccc3)nc2-c2cc3ccccc3oc2=O)N1Cc1cccnc1 (stereo not given) | inconclusive: 10.4 µM [inhibitor, single point]
51 | O=[N+]([O-])c1cc(C(F)(F)F)cc([N+](=O)[O-])c1N1CCCNCC1 | inconclusive: 18.5 µM [inhibitor, single point]
52 | CN(C)S(=O)(=O)c1ccc(N2CCCC2)c(C(=O)Nc2cccc(F)c2)c1 | inactive
53 | CC(=O)c1cccc(S(=O)(=O)N(Cc2cc3cc4c(cc3[nH]c2=O)OCCO4)CC2CCCO2)c1 (stereo not given) | active: 13.1 µM
54 | Cc1ccc(S(=O)(=O)Nc2ccccc2C(=O)NCC2CCCO2)cc1 (stereo not given) | inconclusive: 9.28 µM [inhibitor, partial curve, poor fit]
55 | O=C(O)Cc1c(C(=O)O)nnn1-c1cccc(C(F)(F)F)c1 | inconclusive: 18.5 µM [inhibitor, single point]
56 | CC1CC(C)(C)NC(=S)N1CCC(=O)NCc1ccc(F)cc1 (stereo not given) | inconclusive: 14.7 µM [inhibitor, partial curve, poor fit]
57 | COc1ccc(O)c(C(=O)c2cnc3c(c2)c(C)nn3C)c1 | inconclusive: 5.22 µM [inhibitor, partial curve]
58 | NS(=O)(=O)c1ccc(CNc2nc(-c3cccnc3)nc3ccccc23)cc1 | inconclusive: 13.1 µM [inhibitor, single point]
59 | Cc1cc(C(=O)N/N=C/c2ccc(-c3cccc([N+](=O)[O-])c3)o2)n[nH]1 | inconclusive: 4.15 µM [inhibitor, partial curve]
60 | CCN(CC)C(=O)c1ccc(NC(=O)c2ccc(-n3cncn3)c([N+](=O)[O-])c2)cc1 | inconclusive: 7.38 µM [inhibitor, partial curve]
61 | O=C(C#Cc1ccccc1)Nc1ccc(F)cc1 | inconclusive: 18.5 µM [inhibitor, single point]
62 | CCOC(=O)c1[nH]cnc1C(=O)N1CCC(C)CC1 | inconclusive: 4.15 µM [inhibitor, single point]
63 | COc1ccccc1NC(=O)N1CCCC1C(=O)NCc1cccs1 (stereo not given) | inconclusive: 11.7 µM [inhibitor, single point]
64 | Cc1cccc(-n2nnc(C(=O)NCc3ccco3)c2N)c1 | inactive
65 | COc1ccccc1OCc1ccc(C(=O)NCc2ccco2)o1 | inactive
